This is an account of results in publication PMC10067258.

Amino acid sequences for entries named in this document (tags omitted).
UniProt Q9HC97: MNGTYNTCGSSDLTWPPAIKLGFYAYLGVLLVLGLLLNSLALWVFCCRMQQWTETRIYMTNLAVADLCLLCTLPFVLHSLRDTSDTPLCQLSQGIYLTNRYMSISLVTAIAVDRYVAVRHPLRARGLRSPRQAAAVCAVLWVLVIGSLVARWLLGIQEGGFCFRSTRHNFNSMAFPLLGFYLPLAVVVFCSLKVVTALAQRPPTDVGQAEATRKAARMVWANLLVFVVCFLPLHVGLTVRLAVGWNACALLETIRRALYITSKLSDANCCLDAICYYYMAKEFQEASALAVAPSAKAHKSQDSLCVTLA

For the test, the target named is T1, Neuroglobin (UniProt Q9NPG2).
T1 sequence: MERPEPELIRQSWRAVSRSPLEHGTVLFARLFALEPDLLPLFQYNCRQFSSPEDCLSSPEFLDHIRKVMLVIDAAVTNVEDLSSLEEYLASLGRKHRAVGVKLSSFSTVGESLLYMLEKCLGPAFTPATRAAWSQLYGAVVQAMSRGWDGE
Briefly: co-IP; immunoprecipitation with anti-NGB antibodies, MAg25K/Protein A/G beads; cells not given; procedure as in ref. 31.

No constants are given. Whether binding was seen depends on the method and setting. Binding seen in cells or lysates may run through a third protein. Some binding calls cover weakened binding; strength is not graded here.

In the case of “GPR35 (from UniProt Q9HC97 1-309) (receptor)”, the binding result was “binds”.
